Results are given in words; binding and its absence hold for the method and conditions named. Binding seen in cells or lysates may run through a third protein. Some entries that bind do so weakly or less than the wild type.

Binding data for one molecule are collected here from publication PMC12606047, “Targeting the Liquid–Liquid Separation Region of c‐Maf for Treating Chromosomal Translocations in Multiple Myeloma” (MedComm, 2025).

The target in this experiment is c‐Myc (human (endogenous in ARP1 and KMS28PE)), P01106. The experiment is described as follows: co-IP; Co-IP in ARP1 and KMS28PE MM cell lines; bait, antibodies and buffers not told. The following applies: remark: other sources report otherwise.

B1: Mtbp, Q96DY7 1-904 (protein)
chain: MDRYLLLVIWGEGKFPSAASREAEHGPEVSSGEGTENQPDFTAANVYHLLKRSISASINPEDSTFPACSVGGIPGSKKWFFAVQAIYGFYQFCSSDWQEIHFDTEKDKIEDVLQTNIEECLGAVECFEEEDSNSRESLSLADLYEEAAENLHQLSDKLPAPGRAMVDIILLLSDKDPPKLKDYLPTVGALKHLREWYSAKITIAGNHCEINCQKIAEYLSANVVSLEDLRNVIDSKELWRGKIQIWERKFGFEISFPEFCLKGVTLKNFSTSNLNTDFLAKKIIPSKDKNILPKVFHYYGPALEFVQMIKLSDLPSCYMSDIEFELGLTNSTKQNSVLLLEQISSLCSKVGALFVLPCTISNILIPPPNQLSSRKWKEYIAKKPKTISVPDVEVKGECSSYYLLLQGNGNRRCKATLIHSANQINGSFALNLIHGKMKTKTEEAKLSFPFDLLSLPHFSGEQIVQREKQLANVQVLALEECLKRRKLAKQPETVSVAELKSLLVLTRKHFLDYFDAVIPKMILRKMDKIKTFNILNDFSPVEPNSSSLMETNPLEWPERHVLQNLETFEKTKQKMRTGSLPHSSEQLLGHKEGPRDSITLLDAKELLKYFTSDGLPIGDLQPLPIQKGEKTFVLTPELSPGKLQVLPFEKASVCHYHGIEYCLDDRKALERDGGFSELQSRLIRYETQTTCTRESFPVPTVLSPLPSPVVSSDPGSVPDGEVLQNELRTEVSRLKRRSKDLNCLYPRKRLVKSESSESLLSQTTGNSNHYHHHVTSRKPQTERSLPVTCPLVPIPSCETPKLATKTSSGQKSMHESKTSRQIKESRSQKHTRILKEVVTETLKKHSITETHECFTACSQRLFEISKFYLKDLKTSRGLFEEMKKTANNNAVQVIDWVLEKTSKK
Regarding B1, the binding result is reported as “binds”.
